Results as given in US7879861B2, “Combi-molecules having EGFR and DNA targeting properties” (priority 2005, dated 2011).

Test system: EGFR transfected cells and cell lines with different EGFR levels
Experiment: Internalization and sub-cellular distribution by fluorescence (flow cytometry, UV microscopy)
Format: cell-based
Settings: 25 μM, 30 min

ClCCNc1ccc2ncnc(Nc3cccc(Br)c3)c2c1 [ZR2002]
sub-cellular localization: preferentially localized in the perinuclear region
